Results: the supplement of paper PMC11006884
This is a selection; strong and weak results do not stand in their true shares. Single values of this set are uncertain.

Sequences of proteins named here, by UniProt entry; tags and fusion partners are left off. A change or cut given only in a name is not applied to a line headed by its entry.
UniProt P50570: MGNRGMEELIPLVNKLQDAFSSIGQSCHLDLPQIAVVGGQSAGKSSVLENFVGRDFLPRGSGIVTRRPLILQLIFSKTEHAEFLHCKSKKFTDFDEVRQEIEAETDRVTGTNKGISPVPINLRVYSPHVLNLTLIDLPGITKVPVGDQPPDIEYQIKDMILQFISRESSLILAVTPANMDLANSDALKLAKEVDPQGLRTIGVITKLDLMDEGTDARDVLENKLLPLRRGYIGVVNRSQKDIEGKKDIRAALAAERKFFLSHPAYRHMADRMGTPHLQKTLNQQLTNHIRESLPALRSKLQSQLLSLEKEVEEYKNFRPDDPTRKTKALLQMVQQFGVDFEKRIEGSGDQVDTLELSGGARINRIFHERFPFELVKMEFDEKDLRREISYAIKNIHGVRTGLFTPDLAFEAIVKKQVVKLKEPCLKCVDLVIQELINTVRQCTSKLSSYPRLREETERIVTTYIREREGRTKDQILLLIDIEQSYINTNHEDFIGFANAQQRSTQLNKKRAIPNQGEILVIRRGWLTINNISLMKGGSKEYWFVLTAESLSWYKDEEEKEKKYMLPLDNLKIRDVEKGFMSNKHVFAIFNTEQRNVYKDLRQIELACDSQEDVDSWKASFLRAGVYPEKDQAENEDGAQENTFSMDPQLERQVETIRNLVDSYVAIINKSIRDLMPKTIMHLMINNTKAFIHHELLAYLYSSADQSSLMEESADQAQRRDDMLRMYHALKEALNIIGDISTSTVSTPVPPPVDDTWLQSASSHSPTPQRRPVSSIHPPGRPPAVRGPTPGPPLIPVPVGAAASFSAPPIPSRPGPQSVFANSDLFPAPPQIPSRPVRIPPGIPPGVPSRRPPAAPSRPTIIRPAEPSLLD
UniProt P50991: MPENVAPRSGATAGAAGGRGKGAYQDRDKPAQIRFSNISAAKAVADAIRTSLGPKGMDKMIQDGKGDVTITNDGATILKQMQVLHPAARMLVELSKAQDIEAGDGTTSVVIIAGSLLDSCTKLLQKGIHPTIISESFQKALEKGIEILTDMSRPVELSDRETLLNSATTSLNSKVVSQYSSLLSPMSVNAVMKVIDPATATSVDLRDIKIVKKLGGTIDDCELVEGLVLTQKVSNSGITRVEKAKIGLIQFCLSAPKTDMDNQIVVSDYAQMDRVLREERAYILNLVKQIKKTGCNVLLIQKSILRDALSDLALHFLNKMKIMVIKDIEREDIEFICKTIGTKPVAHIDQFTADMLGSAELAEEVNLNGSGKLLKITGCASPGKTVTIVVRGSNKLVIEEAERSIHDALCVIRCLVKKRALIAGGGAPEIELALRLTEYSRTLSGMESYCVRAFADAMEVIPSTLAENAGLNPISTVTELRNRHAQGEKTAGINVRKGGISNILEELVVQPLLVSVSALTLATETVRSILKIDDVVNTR
UniProt P49736, whole entry, looked up: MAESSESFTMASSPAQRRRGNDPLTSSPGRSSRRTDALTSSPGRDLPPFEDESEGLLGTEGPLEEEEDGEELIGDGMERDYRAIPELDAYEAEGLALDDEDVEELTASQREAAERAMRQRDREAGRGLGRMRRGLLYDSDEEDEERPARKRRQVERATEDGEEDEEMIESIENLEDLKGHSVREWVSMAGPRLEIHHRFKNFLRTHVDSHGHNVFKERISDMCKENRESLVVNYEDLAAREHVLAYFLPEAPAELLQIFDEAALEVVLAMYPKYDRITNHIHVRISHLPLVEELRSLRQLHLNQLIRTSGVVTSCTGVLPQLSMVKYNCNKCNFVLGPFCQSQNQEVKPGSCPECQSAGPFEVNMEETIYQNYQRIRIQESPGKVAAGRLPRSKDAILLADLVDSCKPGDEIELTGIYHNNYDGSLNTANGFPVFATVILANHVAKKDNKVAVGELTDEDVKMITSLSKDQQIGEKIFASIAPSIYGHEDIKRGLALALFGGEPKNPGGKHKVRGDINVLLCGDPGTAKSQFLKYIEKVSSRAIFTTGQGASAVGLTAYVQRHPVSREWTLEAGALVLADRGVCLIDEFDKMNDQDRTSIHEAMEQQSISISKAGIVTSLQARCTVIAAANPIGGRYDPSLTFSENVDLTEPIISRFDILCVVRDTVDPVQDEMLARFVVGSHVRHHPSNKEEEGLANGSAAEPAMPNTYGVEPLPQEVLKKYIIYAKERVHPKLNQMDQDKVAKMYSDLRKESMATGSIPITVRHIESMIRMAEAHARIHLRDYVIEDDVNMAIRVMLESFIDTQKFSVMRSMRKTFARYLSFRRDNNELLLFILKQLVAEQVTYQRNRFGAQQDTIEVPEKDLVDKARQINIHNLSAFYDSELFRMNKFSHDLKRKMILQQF
UniProt P49903: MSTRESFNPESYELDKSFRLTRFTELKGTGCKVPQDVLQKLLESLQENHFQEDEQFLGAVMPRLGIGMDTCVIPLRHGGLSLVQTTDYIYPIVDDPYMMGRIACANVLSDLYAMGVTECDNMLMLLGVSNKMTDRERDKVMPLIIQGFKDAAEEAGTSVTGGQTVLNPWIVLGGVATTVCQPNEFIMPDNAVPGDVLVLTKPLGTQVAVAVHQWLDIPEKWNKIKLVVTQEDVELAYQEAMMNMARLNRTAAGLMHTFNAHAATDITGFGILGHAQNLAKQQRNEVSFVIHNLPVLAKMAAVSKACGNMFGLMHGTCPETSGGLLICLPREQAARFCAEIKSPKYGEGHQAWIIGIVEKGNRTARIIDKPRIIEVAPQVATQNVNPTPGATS
UniProt P48730: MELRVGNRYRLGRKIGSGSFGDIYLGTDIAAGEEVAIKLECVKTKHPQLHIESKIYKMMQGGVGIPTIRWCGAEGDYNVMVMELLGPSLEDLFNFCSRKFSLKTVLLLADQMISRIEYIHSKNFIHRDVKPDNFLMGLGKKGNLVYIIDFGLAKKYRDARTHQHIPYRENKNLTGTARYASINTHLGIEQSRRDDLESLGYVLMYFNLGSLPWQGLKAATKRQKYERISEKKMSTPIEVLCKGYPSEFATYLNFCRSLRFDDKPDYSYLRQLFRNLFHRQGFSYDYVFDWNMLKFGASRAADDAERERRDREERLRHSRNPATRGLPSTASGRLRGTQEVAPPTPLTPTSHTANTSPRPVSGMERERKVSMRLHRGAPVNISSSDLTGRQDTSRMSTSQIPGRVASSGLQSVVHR
UniProt P50336: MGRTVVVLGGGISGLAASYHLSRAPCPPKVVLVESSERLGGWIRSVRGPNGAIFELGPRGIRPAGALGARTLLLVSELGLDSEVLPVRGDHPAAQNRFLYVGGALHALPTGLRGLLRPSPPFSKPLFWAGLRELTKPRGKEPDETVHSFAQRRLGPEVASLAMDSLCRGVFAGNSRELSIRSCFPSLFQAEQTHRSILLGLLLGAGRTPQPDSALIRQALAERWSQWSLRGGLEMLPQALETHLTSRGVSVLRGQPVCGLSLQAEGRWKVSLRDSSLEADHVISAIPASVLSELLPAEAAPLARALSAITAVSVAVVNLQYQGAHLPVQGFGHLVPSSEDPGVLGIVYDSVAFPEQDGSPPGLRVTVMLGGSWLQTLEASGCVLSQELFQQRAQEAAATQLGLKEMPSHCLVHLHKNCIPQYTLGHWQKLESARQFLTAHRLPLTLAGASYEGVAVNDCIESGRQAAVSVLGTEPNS
UniProt P45973, whole entry, looked up: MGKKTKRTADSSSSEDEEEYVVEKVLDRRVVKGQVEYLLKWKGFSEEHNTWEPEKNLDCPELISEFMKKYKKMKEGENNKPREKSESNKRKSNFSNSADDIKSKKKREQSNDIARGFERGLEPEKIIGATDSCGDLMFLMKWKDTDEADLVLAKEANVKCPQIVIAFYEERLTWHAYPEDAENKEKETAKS
UniProt P51610: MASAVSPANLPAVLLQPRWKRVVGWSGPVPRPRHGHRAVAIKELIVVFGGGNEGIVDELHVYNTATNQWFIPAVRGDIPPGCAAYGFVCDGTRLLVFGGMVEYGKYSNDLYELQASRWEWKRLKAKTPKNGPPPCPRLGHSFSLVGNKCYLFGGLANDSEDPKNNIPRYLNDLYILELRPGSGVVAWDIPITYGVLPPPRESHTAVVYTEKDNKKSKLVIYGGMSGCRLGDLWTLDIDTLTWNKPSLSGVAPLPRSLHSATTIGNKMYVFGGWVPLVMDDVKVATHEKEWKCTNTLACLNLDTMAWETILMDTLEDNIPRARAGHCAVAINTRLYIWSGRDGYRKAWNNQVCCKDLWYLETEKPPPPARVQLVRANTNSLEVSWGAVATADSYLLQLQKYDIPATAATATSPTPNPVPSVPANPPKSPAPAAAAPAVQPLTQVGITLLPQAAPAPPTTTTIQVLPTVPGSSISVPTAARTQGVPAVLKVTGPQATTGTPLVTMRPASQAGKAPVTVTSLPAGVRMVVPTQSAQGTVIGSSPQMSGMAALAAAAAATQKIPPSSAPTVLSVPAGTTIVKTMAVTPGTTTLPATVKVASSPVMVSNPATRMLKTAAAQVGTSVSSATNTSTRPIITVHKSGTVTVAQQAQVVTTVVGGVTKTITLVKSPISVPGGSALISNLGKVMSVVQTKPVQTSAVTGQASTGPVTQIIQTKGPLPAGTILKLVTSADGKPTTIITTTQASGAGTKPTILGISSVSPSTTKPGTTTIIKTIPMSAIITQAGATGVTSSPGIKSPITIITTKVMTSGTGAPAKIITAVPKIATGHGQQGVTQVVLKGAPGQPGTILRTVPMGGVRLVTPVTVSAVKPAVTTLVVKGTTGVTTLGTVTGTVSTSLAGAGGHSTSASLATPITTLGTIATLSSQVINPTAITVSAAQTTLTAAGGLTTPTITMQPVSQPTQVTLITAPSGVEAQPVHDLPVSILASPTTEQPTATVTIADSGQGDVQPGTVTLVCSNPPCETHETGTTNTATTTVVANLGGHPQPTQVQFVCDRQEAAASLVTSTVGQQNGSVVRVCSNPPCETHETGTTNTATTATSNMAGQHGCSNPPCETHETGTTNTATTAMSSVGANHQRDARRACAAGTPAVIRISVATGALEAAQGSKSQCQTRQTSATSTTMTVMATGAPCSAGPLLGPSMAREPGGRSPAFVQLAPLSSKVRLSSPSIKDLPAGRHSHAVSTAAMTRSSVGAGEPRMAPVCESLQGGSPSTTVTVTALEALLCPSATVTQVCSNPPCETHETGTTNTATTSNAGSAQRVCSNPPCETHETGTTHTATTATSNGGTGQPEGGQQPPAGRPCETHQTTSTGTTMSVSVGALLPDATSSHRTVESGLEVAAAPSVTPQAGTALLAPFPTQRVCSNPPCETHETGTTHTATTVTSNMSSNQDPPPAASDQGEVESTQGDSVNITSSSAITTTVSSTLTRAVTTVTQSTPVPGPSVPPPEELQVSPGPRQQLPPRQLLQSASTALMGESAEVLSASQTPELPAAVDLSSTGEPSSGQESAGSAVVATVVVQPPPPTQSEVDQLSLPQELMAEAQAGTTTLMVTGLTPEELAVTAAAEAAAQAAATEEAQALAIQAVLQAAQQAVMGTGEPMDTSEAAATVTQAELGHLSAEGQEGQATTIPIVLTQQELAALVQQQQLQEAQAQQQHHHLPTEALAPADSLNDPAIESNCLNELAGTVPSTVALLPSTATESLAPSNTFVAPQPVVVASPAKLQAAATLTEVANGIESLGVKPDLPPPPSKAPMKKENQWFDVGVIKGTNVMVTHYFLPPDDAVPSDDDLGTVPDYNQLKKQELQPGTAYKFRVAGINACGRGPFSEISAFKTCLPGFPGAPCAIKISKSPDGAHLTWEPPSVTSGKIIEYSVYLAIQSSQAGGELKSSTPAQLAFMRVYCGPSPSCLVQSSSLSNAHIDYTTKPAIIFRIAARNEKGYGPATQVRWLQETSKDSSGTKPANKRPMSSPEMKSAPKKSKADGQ
UniProt P49585: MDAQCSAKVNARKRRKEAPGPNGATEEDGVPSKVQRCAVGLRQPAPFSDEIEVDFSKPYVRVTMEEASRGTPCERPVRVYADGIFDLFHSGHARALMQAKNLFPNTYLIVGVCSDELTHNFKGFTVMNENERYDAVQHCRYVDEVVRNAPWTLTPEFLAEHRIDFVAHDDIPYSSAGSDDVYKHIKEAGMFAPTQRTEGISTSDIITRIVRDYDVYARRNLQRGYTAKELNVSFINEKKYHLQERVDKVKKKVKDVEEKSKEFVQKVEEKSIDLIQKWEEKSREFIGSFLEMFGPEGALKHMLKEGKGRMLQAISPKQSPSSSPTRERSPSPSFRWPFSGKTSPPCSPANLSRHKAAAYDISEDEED

Compound: COC(=O)/C=C/c1ccccc1 [methyl cinnamate]
Experiment: log2 ratio of iodoacetamide-alkyne labeling of the cysteine site, DMSO over compound (competition); higher = stronger covalent engagement of the cysteine by the compound, active = 1 or more
Conditions: 500 µM; treatment time 1 h; system: HEK293T cell lysate
Procedure, shortened: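 Three replicates, each with duplicate channels, were prepared from HEK293T lysate (2 mg/mL) treated with vehicle or electrophile at 500 µM for 1 h at ambient temperature. Iodoacetamide alkyne was then applied for 1 h, and samples were clicked to sCIP-TMT reagents, pooled, trypsin-digested overnight at 37 °C, enriched on streptavidin, acid-eluted and analysed on Orbitrap Eclipse LC-MS/MS with FAIMS, with FragPipe quantification. The log2 competition ratio per cysteine is the mean control-channel divided by the mean compound-channel reporter intensity. Cysteines quantified in only one replicate were left out.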

| Target | log2 ratio of iodoacetamide-alkyne labeling |
| --- | --- |
| DNM2 C607 (UniProt P50570) | inactive: -0.0224 |
| RANBP2 C2407 (UniProt P49792) | inactive: -0.0549 |
| CCT4 C295 (UniProt P50991) | inactive: 0.24 |
| MCM2 C522 (UniProt P49736) | inactive: -0.138 |
| SEPHS1 C31 (UniProt P49903) | inactive: 0.0157 |
| UniProt P48730_C255 | inactive: 0.106 |
| UniProt P49591_C431 | inactive: -0.0487 |
| PPOX C183 (UniProt P50336) | inactive: 0.17 |
| MKI67 C715 (UniProt P46013) | inactive: 0.25 |
| RPL27A C70 (UniProt P46776) | inactive: 0.0341 |
| UniProt P48634_C1821 | inactive: 0.186 |
| CBX5 C160 (UniProt P45973) | inactive: 0.397 |
| RBM25 C83 (UniProt P49756) | inactive: 0.302 |
| HCFC1 C1886 (UniProt P51610) | inactive: 0.0527 |
| FASN C1471 (UniProt P49327) | inactive: 0.221 |
| PCYT1A C5 (UniProt P49585) | inactive: 0.244 |

Not a retest: entries from further up.

| Target | log2 ratio of iodoacetamide-alkyne labeling |
| --- | --- |
| RBM25 C83 (UniProt P49756) | inactive: 0.302 |
| HCFC1 C1886 (UniProt P51610) | inactive: 0.0527 |
